Literature values as cited in patent US20160095850A1, “METHODS AND COMPOSITIONS FOR TREATMENT OF HIV INFECTION” (COOPER HUMAN SYSTEMS LLC, priority 2013, published 2016).

Tested on: latent HIV
Conditions: in vitro T-cell model of HIV latency; read-out: EC50 of HIV induction

## O=C(CCCCCCC(=O)Nc1ccccc1)NO [Vorinostat, suberoylanilide hydroxamic acid]
  EC50: 3.95 µM
